Data published in ChEMBL document CHEMBL5674883, “The Heterochromatin Landscape in Migrating Cells and the Importance of H3K27me3 for Associated Transcriptome Alterations” (Cells, 2018).
This continues a long series; more values of the same kind are listed elsewhere.

Sequences of proteins named here, by UniProt entry; tags and fusion partners are left off.
UniProt Q61188, whole entry: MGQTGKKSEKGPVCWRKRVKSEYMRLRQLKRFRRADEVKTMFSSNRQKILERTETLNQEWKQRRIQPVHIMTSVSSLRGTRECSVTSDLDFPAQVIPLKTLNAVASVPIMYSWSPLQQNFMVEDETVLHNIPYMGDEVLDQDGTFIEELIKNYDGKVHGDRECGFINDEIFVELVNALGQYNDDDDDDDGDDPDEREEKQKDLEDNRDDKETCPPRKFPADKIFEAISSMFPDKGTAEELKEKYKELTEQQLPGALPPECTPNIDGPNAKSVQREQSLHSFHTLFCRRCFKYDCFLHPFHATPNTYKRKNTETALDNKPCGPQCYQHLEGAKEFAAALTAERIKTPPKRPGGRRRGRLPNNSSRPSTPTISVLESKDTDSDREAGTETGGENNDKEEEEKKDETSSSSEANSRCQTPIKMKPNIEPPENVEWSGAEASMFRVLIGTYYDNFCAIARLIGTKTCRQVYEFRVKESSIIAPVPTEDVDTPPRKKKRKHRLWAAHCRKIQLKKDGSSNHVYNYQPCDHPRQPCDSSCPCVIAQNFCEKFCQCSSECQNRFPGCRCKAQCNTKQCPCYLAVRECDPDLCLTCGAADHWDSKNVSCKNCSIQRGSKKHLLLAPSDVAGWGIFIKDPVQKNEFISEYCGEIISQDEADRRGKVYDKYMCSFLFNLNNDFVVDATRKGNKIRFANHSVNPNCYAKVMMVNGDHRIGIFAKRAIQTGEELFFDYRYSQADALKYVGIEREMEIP

Assays:
Assay type in all cases: cell-based
[1] = target: Histone-lysine N-methyltransferase EZH2 (Mus musculus) (UniProt Q61188); experiment: Inhibition of EZH2 in mouse B16-F1 migrating cells assessed as fold change in H3K27me3-buffered regulated Gm45546-mRNA expression at 3 uM measured by ChIP-seq analysis relative to control cells
[2] = target: Histone-lysine N-methyltransferase EZH2 (Mus musculus) (UniProt Q61188); experiment: Inhibition of EZH2 in mouse B16-F1 migrating cells assessed as fold change in H3K27me3-buffered regulated Peg10-mRNA expression at 3 uM measured by ChIP-seq analysis relative to control cells
[3] = target: Histone-lysine N-methyltransferase EZH2 (Mus musculus) (UniProt Q61188); experiment: Inhibition of EZH2 in mouse B16-F1 migrating cells assessed as fold change in H3K27me3-independent regulated Sgms2-mRNA expression at 3 uM measured by ChIP-seq analysis relative to control cells
[4] = target: Histone-lysine N-methyltransferase EZH2 (Mus musculus) (UniProt Q61188); experiment: Inhibition of EZH2 in mouse B16-F1 migrating cells assessed as fold change in H3K27me3-buffered regulated Mamld1-mRNA expression at 3 uM measured by ChIP-seq analysis relative to control cells
[5] = target: Histone-lysine N-methyltransferase EZH2 (Mus musculus) (UniProt Q61188); experiment: Inhibition of EZH2 in mouse B16-F1 migrating cells assessed as fold change in H3K27me3-independent regulated Cebpb-mRNA expression at 3 uM measured by ChIP-seq analysis relative to control cells
[6] = target: Histone-lysine N-methyltransferase EZH2 (Mus musculus) (UniProt Q61188); experiment: Inhibition of EZH2 in mouse B16-F1 migrating cells assessed as fold change in H3K27me3-dependent regulated Ttbk1-mRNA expression at 3 uM measured by ChIP-seq analysis relative to control cells
[7] = target: Histone-lysine N-methyltransferase EZH2 (Mus musculus) (UniProt Q61188); experiment: Inhibition of EZH2 in mouse B16-F1 migrating cells assessed as fold change in H3K27me3-buffered regulated Cep170-mRNA expression at 3 uM measured by ChIP-seq analysis relative to control cells
[8] = target: Histone-lysine N-methyltransferase EZH2 (Mus musculus) (UniProt Q61188); experiment: Inhibition of EZH2 in mouse B16-F1 migrating cells assessed as fold change in H3K27me3-buffered regulated Gprc5a-mRNA expression at 3 uM measured by ChIP-seq analysis relative to control cells
[9] = target: Histone-lysine N-methyltransferase EZH2 (Mus musculus) (UniProt Q61188); experiment: Inhibition of EZH2 in mouse B16-F1 migrating cells assessed as fold change in H3K27me3-independent regulated Ankrd34a-mRNA expression at 3 uM measured by ChIP-seq analysis relative to control cells
[10] = target: Histone-lysine N-methyltransferase EZH2 (Mus musculus) (UniProt Q61188); experiment: Inhibition of EZH2 in mouse B16-F1 migrating cells assessed as fold change in H3K27me3-buffered regulated Agpat4-mRNA expression at 3 uM measured by ChIP-seq analysis relative to control cells
[11] = target: Histone-lysine N-methyltransferase EZH2 (Mus musculus) (UniProt Q61188); experiment: Inhibition of EZH2 in mouse B16-F1 migrating cells assessed as fold change in H3K27me3-buffered regulated Plk3-mRNA expression at 3 uM measured by ChIP-seq analysis relative to control cells
[12] = target: T1, RNA polymerase II (Mus musculus) (UniProt P08775+Q8CFI7+P97760+A0A3Q4L2S8+Q80UW8+P61219+P62488+Q923G2+P60898+O08740+Q63871+P62876); experiment: Inhibition of RNA polymerase II in mouse B16-F1 migrating cells assessed as fold change in Mphosph8-RNA stability at 0.1 mM measured by ChIP-seq analysis relative to control cells
[13] = target: T1, RNA polymerase II (Mus musculus); experiment: Inhibition of RNA polymerase II in mouse B16-F1 migrating cells assessed as fold change in Esf1-RNA stability at 0.1 mM measured by ChIP-seq analysis relative to control cells
[14] = target: T1, RNA polymerase II (Mus musculus); experiment: Inhibition of RNA polymerase II in mouse B16-F1 migrating cells assessed as fold change in Tcf20-RNA stability at 0.1 mM measured by ChIP-seq analysis relative to control cells
[15] = target: T1, RNA polymerase II (Mus musculus); experiment: Inhibition of RNA polymerase II in mouse B16-F1 migrating cells assessed as fold change in Cracr2b-RNA stability at 0.1 mM measured by ChIP-seq analysis relative to control cells
[16] = target: T1, RNA polymerase II (Mus musculus); experiment: Inhibition of RNA polymerase II in mouse B16-F1 migrating cells assessed as fold change in Foxn2-RNA stability at 0.1 mM measured by ChIP-seq analysis relative to control cells
[17] = target: T1, RNA polymerase II (Mus musculus); experiment: Inhibition of RNA polymerase II in mouse B16-F1 migrating cells assessed as fold change in Atp6v0c-RNA stability at 0.1 mM measured by ChIP-seq analysis relative to control cells
[18] = target: T1, RNA polymerase II (Mus musculus); experiment: Inhibition of RNA polymerase II in mouse B16-F1 migrating cells assessed as fold change in Ift74-RNA stability at 0.1 mM measured by ChIP-seq analysis relative to control cells
[19] = target: T1, RNA polymerase II (Mus musculus); experiment: Inhibition of RNA polymerase II in mouse B16-F1 migrating cells assessed as fold change in Actr2-RNA stability at 0.1 mM measured by ChIP-seq analysis relative to control cells
[20] = target: T1, RNA polymerase II (Mus musculus); experiment: Inhibition of RNA polymerase II in mouse B16-F1 migrating cells assessed as fold change in Mrps34-RNA stability at 0.1 mM measured by ChIP-seq analysis relative to control cells
[21] = target: T1, RNA polymerase II (Mus musculus); experiment: Inhibition of RNA polymerase II in mouse B16-F1 migrating cells assessed as fold change in Usp15-RNA stability at 0.1 mM measured by ChIP-seq analysis relative to control cells
[22] = target: T1, RNA polymerase II (Mus musculus); experiment: Inhibition of RNA polymerase II in mouse B16-F1 migrating cells assessed as fold change in Thoc1-RNA stability at 0.1 mM measured by ChIP-seq analysis relative to control cells
[23] = target: T1, RNA polymerase II (Mus musculus); experiment: Inhibition of RNA polymerase II in mouse B16-F1 migrating cells assessed as fold change in Rpl7a-RNA stability at 0.1 mM measured by ChIP-seq analysis relative to control cells
[24] = target: T1, RNA polymerase II (Mus musculus); experiment: Inhibition of RNA polymerase II in mouse B16-F1 migrating cells assessed as fold change in Arl6ip6-RNA stability at 0.1 mM measured by ChIP-seq analysis relative to control cells
[25] = target: T1, RNA polymerase II (Mus musculus); experiment: Inhibition of RNA polymerase II in mouse B16-F1 migrating cells assessed as fold change in Ptpn2-RNA stability at 0.1 mM measured by ChIP-seq analysis relative to control cells
[26] = target: T1, RNA polymerase II (Mus musculus); experiment: Inhibition of RNA polymerase II in mouse B16-F1 migrating cells assessed as fold change in Pdk3-RNA stability at 0.1 mM measured by ChIP-seq analysis relative to control cells
[27] = target: T1, RNA polymerase II (Mus musculus); experiment: Inhibition of RNA polymerase II in mouse B16-F1 migrating cells assessed as fold change in Mis18bp1-RNA stability at 0.1 mM measured by ChIP-seq analysis relative to control cells
[28] = target: T1, RNA polymerase II (Mus musculus); experiment: Inhibition of RNA polymerase II in mouse B16-F1 migrating cells assessed as fold change in Zbtb18-RNA stability at 0.1 mM measured by ChIP-seq analysis relative to control cells
[29] = target: T1, RNA polymerase II (Mus musculus); experiment: Inhibition of RNA polymerase II in mouse B16-F1 migrating cells assessed as fold change in Peli1-RNA stability at 0.1 mM measured by ChIP-seq analysis relative to control cells
[30] = target: T1, RNA polymerase II (Mus musculus); experiment: Inhibition of RNA polymerase II in mouse B16-F1 migrating cells assessed as fold change in Itsn2-RNA stability at 0.1 mM measured by ChIP-seq analysis relative to control cells

CCCc1cc(C)[nH]c(=O)c1CNC(=O)c1cc(-c2ccnc(N3CCN(C)CC3)c2)cc2c1cnn2C(C)C
log2FC [1]: -1.13
log2FC [2]: -0.49
log2FC [3]: 0.57
log2FC [4]: -0.9
log2FC [5]: 0.44
log2FC [6]: -0.12
log2FC [7]: -0.38
log2FC [8]: 2.18
log2FC [9]: -0.89
log2FC [10]: 0.39
log2FC [11]: 0.46

OC[C@H]1O[C@@H](n2cnc3cc(Cl)c(Cl)cc32)[C@H](O)[C@@H]1O
log2FC [12]: -1.17
log2FC [13]: -1.07
log2FC [14]: -0.44
log2FC [15]: 0.5
log2FC [16]: -0.85
log2FC [17]: 0.44
log2FC [18]: -0.96
log2FC [19]: -0.77
log2FC [20]: 0.54
log2FC [21]: -0.77
log2FC [22]: -0.54
log2FC [23]: 0.38
log2FC [24]: -0.73
log2FC [25]: -0.63
log2FC [26]: 0.6
log2FC [27]: -0.91
log2FC [28]: -0.61
log2FC [29]: -0.67
log2FC [30]: -0.54
